Reference: publication PMC12040169 (PLOS Biology, 2025)
This is one part of the list.

System: T1, CTL2-GFP (C. trachomatis L2/434/Bu, GFP-expressing)
T1 construct: L2/434/Bu, GFP-expressing
Design: species or system HeLa; Intracellular C. trachomatis growth in HeLa cells, bulk GFP fluorescence relative to DMSO
Settings: bulk GFP, single well; 28.5 h, 10 µM; inhibitor

Structure (SMILES) | % of control remaining
COc1c(Br)cc(Br)cc1/C=C1/SC(=N)NC1=O [CBK119298] | 138.803%
COc1ccc(C(C)C)cc1-c1nc2ncccc2cc1NC(=O)C(C)C [CBK073659] | 125.545%
COc1cccc(N(CC(=O)Nc2ccc(C)c(C)c2)S(=O)(=O)c2ccc(C)cc2)c1 [CBK263761] | 97.8231%
Cn1nc2c(c1C(=O)N1CCc3[nH]c4ccccc4c3C1)CCCC2 [CBK281844] | 137.939%
CC[C@H](Cn1ncc2ccccc2c1=O)NC(=O)CC(C)C [CBK284305] | 116.689%
COc1cccc(NC(=O)CC(CN2CCC(O)CC2)C(=O)O)c1 (stereo not drawn) [CBK286842] | 135.871%
COc1ccc2c(c1)CC(=O)NC21CCN(C(=O)N[C@@H](C)c2ccccc2)CC1 [CBK047325] | 103.086%
O=[N+]([O-])c1ccccc1CN1C[C@H](O)C[C@H]1c1nc(-c2ccncc2)no1 [CBK288839] | 126.023%
CCNC(=O)Nc1cc2cccnc2c(-c2ccsc2)n1 [CBK081226] | 168.249%
Cc1ccc(NC(=O)CCC(=O)N/N=C/c2ccco2)c(C)c1 [CBK263885] | 96.5422%
CCOC(=O)c1cnn2c(O)cc(CN(CC(C)(C)O)C(C)C)nc12 [CBK306133] | 110.509%
CC(=O)Nc1c[nH]nc1C1CCCN(c2cccc(F)c2C#N)C1 (stereo not drawn) [CBK306401] | 129.934%
O=C1NC(CCSC2=NCN=N2)Oc2ccccc21 (stereo not drawn) [CBK009148] | 126.289%
O=C(c1nccs1)C1CCN(C(=O)c2cc(F)cc(F)c2)CC1 [CBK284200] | 114.951%
O=C1CCC(=O)N1CCOc1nccnc1N1CCN(CCc2c[nH]c3ccccc23)CC1 [CBK084304] | 55.4361%
NC(=O)C1CCCN(S(=O)(=O)c2ccc(S(N)(=O)=O)cc2)C1 (stereo not drawn) [CBK266312] | 134.75%
CCC(CC)C(=O)N1CCn2c(nnc2-c2cncc(Br)c2)C1 [CBK304409] | 113.258%
O[C@@]1(c2ccccn2)CC[C@H]2CN(CC3CCCCC3)C[C@H]21 [CBK282996] | 130.571%
O=C(Oc1ccc(-c2cnc3ccccc3n2)cc1)c1ccc(S(=O)(=O)N2CCCCC2)cc1 [CBK267812] | 129.531%
CCCCNc1ncncc1-c1ccc(Br)cc1 [CBK005014C] | 66.1886%
COc1ncc(-c2nccnc2OCC2COc3ccccc3O2)c(OC)n1 (stereo not drawn) [CBK106754] | 111.237%

Two of the compounds above, in CSV form.
Structure (SMILES),% of control remaining
CCC(CC)C(=O)N1CCn2c(nnc2-c2cncc(Br)c2)C1 [CBK304409],113.258%
O[C@@]1(c2ccccn2)CC[C@H]2CN(CC3CCCCC3)C[C@H]21 [CBK282996],130.571%

(listing goes on)

Structure (SMILES) | % of control remaining
Cn1c(SCCCN2C(=O)c3cccc4cccc(c34)C2=O)nnc1-c1ccncc1 [CBK268951] | 132.234%
Cc1ccc(NC(=O)C(=O)NCCCn2ccnc2)cc1C [CBK264157] | 118.146%
CSCCC(=O)Nc1ccc2c(ccn2Cc2ccccc2)c1 [CBK159732] | 74.5404%
O=C(C[n+]1ccccc1)c1ccccc1Cl [CBK016283B] | 117.376%
CC1=[N+]([O-])C2(N)CCc3nonc3C2(O)C1 (stereo not drawn) [CBK261513] | 113.353%
O=C(c1ccco1)N1CCN(c2cc(-c3cc(C(F)(F)F)cc(C(F)(F)F)c3)ncn2)CC1 [CBK037734] | 88.32%
CCn1c(CCCNC=O)nc2ccccc21 [CBK269551] | 136.438%
O=C(O)CN1/C(=C\C=C2/SC(=S)N(c3ccccc3)C2=O)Sc2ccccc21 [CBK265251] | 100%
O=C(Nc1ccc(Cl)cc1Cl)C1CC2CCC1C2 (stereo not drawn) [CBK058237] | 118.92%
Cc1nccn1CC1CCCN(Cc2nc3ccccc3[nH]2)C1 (stereo not drawn) [CBK281619] | 145.675%
Cc1nc(N)nc(N2CCN(C)CC2)n1 [CBK015681] | 105.275%
O=C(c1cccc(Br)c1)N1CCN(S(=O)(=O)N2CCOCC2)CC1 [CBK267470] | 137.777%
CC1CCN(C(=O)C2CCCCC2C(=O)O)CC1 (stereo not drawn) [CBK028392] | 122.145%
Cn1ccnc1SCCNC(=O)c1cccc(Cn2cccn2)c1 [CBK282112] | 124.402%
Cc1ccc(-c2cc(C(=O)NCCCn3ccnc3)no2)cc1 [CBK268200] | 96.8755%
CC(=O)Nc1nc(-c2ccccc2C)ccc1C(=O)N(C)C [CBK106328] | 96.0833%
c1ccc(OCCSc2cc(N3CCCC3)ncn2)cc1 [CBK103689] | 90.1217%
CC1CCc2onc(C(=O)NCc3nccn3C)c2C1 (stereo not drawn) [CBK281514] | 126.576%
Cc1cccnc1C(Cc1ccsc1)NC(=O)Cn1ccnc1 (stereo not drawn) [CBK284802] | 169.942%
O=C(NCCCn1ccnc1)C1CCN(C(=O)c2cccc(Cl)c2)CC1 [CBK307596] | 98.7145%
FC(F)(F)c1cccc(CSc2nccnc2N2CCCC2)c1 [CBK107178] | 137.496%

Entries listed so far with a carbonyl joined to an NH by a bond outside any ring:
Structure (SMILES) | % of control remaining
COc1ccc(C(C)C)cc1-c1nc2ncccc2cc1NC(=O)C(C)C [CBK073659] | 125.545%
COc1cccc(N(CC(=O)Nc2ccc(C)c(C)c2)S(=O)(=O)c2ccc(C)cc2)c1 [CBK263761] | 97.8231%
CC[C@H](Cn1ncc2ccccc2c1=O)NC(=O)CC(C)C [CBK284305] | 116.689%
COc1cccc(NC(=O)CC(CN2CCC(O)CC2)C(=O)O)c1 (stereo not drawn) [CBK286842] | 135.871%
COc1ccc2c(c1)CC(=O)NC21CCN(C(=O)N[C@@H](C)c2ccccc2)CC1 [CBK047325] | 103.086%
CCNC(=O)Nc1cc2cccnc2c(-c2ccsc2)n1 [CBK081226] | 168.249%
Cc1ccc(NC(=O)CCC(=O)N/N=C/c2ccco2)c(C)c1 [CBK263885] | 96.5422%
CC(=O)Nc1c[nH]nc1C1CCCN(c2cccc(F)c2C#N)C1 (stereo not drawn) [CBK306401] | 129.934%
NC(=O)C1CCCN(S(=O)(=O)c2ccc(S(N)(=O)=O)cc2)C1 (stereo not drawn) [CBK266312] | 134.75%
Cc1ccc(NC(=O)C(=O)NCCCn2ccnc2)cc1C [CBK264157] | 118.146%
CSCCC(=O)Nc1ccc2c(ccn2Cc2ccccc2)c1 [CBK159732] | 74.5404%
CCn1c(CCCNC=O)nc2ccccc21 [CBK269551] | 136.438%
O=C(Nc1ccc(Cl)cc1Cl)C1CC2CCC1C2 (stereo not drawn) [CBK058237] | 118.92%
Cn1ccnc1SCCNC(=O)c1cccc(Cn2cccn2)c1 [CBK282112] | 124.402%
Cc1ccc(-c2cc(C(=O)NCCCn3ccnc3)no2)cc1 [CBK268200] | 96.8755%
CC(=O)Nc1nc(-c2ccccc2C)ccc1C(=O)N(C)C [CBK106328] | 96.0833%
CC1CCc2onc(C(=O)NCc3nccn3C)c2C1 (stereo not drawn) [CBK281514] | 126.576%
Cc1cccnc1C(Cc1ccsc1)NC(=O)Cn1ccnc1 (stereo not drawn) [CBK284802] | 169.942%
O=C(NCCCn1ccnc1)C1CCN(C(=O)c2cccc(Cl)c2)CC1 [CBK307596] | 98.7145%

Continuation.

Structure (SMILES) | % of control remaining
CCc1nn(CC(=O)NCC2CC2)c(=O)c2cc3sc(C)cc3n12 [CBK284100] | 108.884%
CCC1CCCCN1Cc1nc2c(c(=O)n(C)c(=O)n2C)n1CCCO (stereo not drawn) [CBK269365] | 189.975%
COc1ccccc1CN(C)C(C)C(=O)Nc1ccc(NC(C)=O)cc1 (stereo not drawn) [CBK305873] | 125.872%
NC1CC(c2cc(NCCOc3ccccc3Cl)ncn2)C1 (stereo not drawn) [CBK307167] | 143.774%
COCC(=O)N1CCc2nc(-c3ccc(F)cc3)sc2C1 [CBK281673] | 59.9525%
O=C(CCn1c(C(F)F)cc2cccnc21)NCc1ccccn1 [CBK285068] | 144.571%
O=C1/C(=N\O)c2ccccc2N1Cc1ccccc1 [CBK288484] | 117.908%
Cc1ccc(NC(=O)CSc2nnc(-c3cnccn3)s2)cc1 [CBK269872] | 132.421%
S=C(NCCc1ccccn1)NCCN1CCOCC1 [CBK268296] | 93.0817%
Cc1ccc(S(=O)(=O)NNC(=O)COc2cccc3cccnc23)cc1 [CBK268788] | 96.2372%
Nc1ncc(-c2cccc(F)c2)nc1Nc1ccc2[nH]ccc2c1 [CBK063851] | 149.623%
Cc1ccc(CNS(=O)(=O)c2ccc3ccccc3c2)cc1 [CBK266501] | 113.121%
CC12CN3CC(C)(CN(C1)C3c1cc(Br)ccc1O)C2O (stereo not drawn) [CBK262664] | 97.8777%
COc1ccc(-c2cc(C(=O)Nc3c(C)cccc3C)n[nH]2)c(OC)c1 [CBK288114] | 117.192%
CCOc1ccc(C(=O)CCNCC(=O)O)cc1 [CBK286657] | 116.088%
Cc1cc(=O)n(C)c(=O)n1CCCN1CCCCC1 [CBK027584] | 139.215%
CN(C)c1ncccc1OC1CCN(c2ccnc(C3CC3)n2)C1 (stereo not drawn) [CBK306182] | 93.4412%
Fc1ccc2c3c([nH]c2c1)C1(CCN(Cc2cc(F)c(F)c(F)c2)CC1)NCC3 [CBK039688] | 118.515%
COCCN1C(=O)C2(CC(=O)N(CCNS(C)(=O)=O)C2=O)c2cc(C)ccc21 (stereo not drawn) [CBK075479] | 104.202%
COc1ccc(CNC(=O)C[C@@H]2[C@H](O)CCC3[C@]4(C)CO[C@@H](CN)O[C@@H]4CC[C@]32C)cc1 (stereo partly drawn) [CBK289575] | 138.869%
CN(C)CCCNc1ccc(C(F)(F)F)cn1 [CBK269414] | 155.42%

Structure (SMILES) | % of control remaining
CN1C[C@@H](NC(=O)Nc2ccccc2)C[C@H]1c1nc(-c2ccccc2)no1 [CBK288877] | 94.3731%
COc1ccc(C2(CN3CCC(NC(C)=O)CC3)CCCC2)cc1 [CBK283241] | 135.202%
COc1ccc(-c2cc(=O)n3cc[nH]c3n2)cc1 [CBK006659] | 112.676%
CC(C)(C)OC(=O)N1Cc2ccccc2C[C@H]1C(=O)N1CCC(C(=O)O)CC1 [CBK286761] | 117.408%
CN1CCN(c2ccc(C(=O)NC3CCCC3)cc2)CC1 [CBK200119] | 149.58%
Cc1ccccc1OCc1nc(C#N)c(NCc2ccc3c(c2)OCO3)o1 [CBK073372] | 112.4%
COc1ccc(C(=O)[C@@H]2CCCC[C@H]2N)cc1 [CBK023040C] | 158.427%
CC(=O)Nc1ccc(-c2cccc(COC3CCN(C(=O)Cc4c[nH]cn4)CC3)c2)cc1 [CBK149497] | 124.667%
CC(=O)Nc1ccc(S(=O)(=O)Nc2ccc(CC#N)cc2)cc1Cl [CBK044058] | 96.4036%
O=C(Cn1nc(C(=O)O)c2ccccc2c1=O)c1ccc(S(=O)(=O)N2CCOCC2)cc1 [CBK296939] | 134.667%
CN(Cc1ccccc1)Cc1ccccc1O [CBK261879] | 107.886%
COc1ccc(Cl)cc1NC(=O)CSc1nc2cc3ccccc3cc2[nH]1 [CBK268410] | 67.3936%
Cc1cc(NC(=O)CN(C)c2ncccc2C#N)no1 [CBK304182] | 134.265%
Cc1ccc(C2C(C(=O)c3ccccc3)=C(O)C(=O)N2CCC(=O)O)cc1 (stereo not drawn) [CBK286642] | 122.115%
CCN(CC)C(=O)c1[nH]c2ccccc2c1NS(=O)(=O)Cc1ccccc1 [CBK050107] | 85.326%
COc1cc(/C=C2/C(=O)N(c3ccc(Cl)c(C(=O)O)c3)N=C2C)ccc1Oc1nc2c(c(=O)n(C)c(=O)n2C)n1C [CBK262962] | 109.353%
COc1ccnc(N2CCN(C(=O)c3cnn(C)c3)CC2)n1 [CBK306125] | 114.823%
O=C(O)c1ccc(N2C(=O)CC(N3CCN(Cc4ccccc4)CC3)C2=O)cc1 (stereo not drawn) [CBK261403] | 102.677%
